From ChEMBL document CHEMBL3988442, “University of Dundee, Small-Polar-MMV Screening Library” (2021).

By UniProt entry, the sequences of proteins in these tests, tags left out. Residues count along the entry.
UniProt A4I591, 1-473: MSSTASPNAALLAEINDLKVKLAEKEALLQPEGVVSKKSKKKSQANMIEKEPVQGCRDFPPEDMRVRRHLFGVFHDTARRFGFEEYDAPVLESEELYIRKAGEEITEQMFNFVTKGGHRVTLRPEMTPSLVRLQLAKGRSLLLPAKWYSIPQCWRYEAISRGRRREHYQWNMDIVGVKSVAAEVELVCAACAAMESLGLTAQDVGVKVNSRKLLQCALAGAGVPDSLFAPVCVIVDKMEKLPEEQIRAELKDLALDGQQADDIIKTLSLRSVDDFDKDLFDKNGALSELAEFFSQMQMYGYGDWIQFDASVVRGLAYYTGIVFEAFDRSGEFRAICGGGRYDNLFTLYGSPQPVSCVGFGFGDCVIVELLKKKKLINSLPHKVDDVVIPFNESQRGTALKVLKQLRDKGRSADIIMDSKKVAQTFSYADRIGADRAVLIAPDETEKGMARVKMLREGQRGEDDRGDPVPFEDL
UniProt P9WPC5, whole entry: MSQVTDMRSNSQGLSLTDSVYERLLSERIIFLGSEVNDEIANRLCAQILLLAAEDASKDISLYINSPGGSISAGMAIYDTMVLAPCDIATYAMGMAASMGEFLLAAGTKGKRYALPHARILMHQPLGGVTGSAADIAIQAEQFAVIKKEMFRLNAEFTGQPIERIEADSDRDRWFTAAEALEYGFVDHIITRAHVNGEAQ
UniProt P9WPC3, whole entry partner: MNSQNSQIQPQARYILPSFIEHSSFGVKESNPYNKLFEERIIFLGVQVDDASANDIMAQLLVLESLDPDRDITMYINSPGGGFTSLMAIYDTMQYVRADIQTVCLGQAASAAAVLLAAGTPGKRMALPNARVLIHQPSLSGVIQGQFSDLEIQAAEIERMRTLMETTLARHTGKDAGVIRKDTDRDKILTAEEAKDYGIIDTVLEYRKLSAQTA

LiHisRS: 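Enzyme assay of histidyl-tRNA synthetase; the read-out is not stated. Target: Histidine-tRNA ligase, Leishmania infantum (UniProt A4I591). Concentration: 30 µM. Higher reads as stronger inhibition (inferred: compounds with an IC50 in retests scored well above the rest). The assay is labelled LdHisRS but filed under L. infantum. Size under these conditions: about 69,000 compounds, about 410 of them at 50% or above in at least one test.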
Toxoplasma: 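Assay of Toxoplasma gondii numbers, read through their beta-galactosidase reporter with a colour substrate. Concentration: 10 µM. The record gives no direction; the compounds picked for IC50 retests had high values, so higher reads as fewer parasites. Of about 67,000 compounds tested this way, about 260 (0.38%) reached 50% or more in at least one test.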
ClpP1P2: 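ClpP1P2, Mycobacterium tuberculosis (UniProt P9WPC5 and UniProt P9WPC3). Protease assay of ClpP1P2, read by the AMC dye that it sets free. Tested at 50 µM. Direction is inferred from only a few compounds that gave an IC50; most scored high, so higher reads as stronger inhibition. Most other retested compounds had strongly negative values. Of about 69,000 compounds tested this way, about 10 (0.015%) reached 50% or more in at least one test.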
T. brucei: 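Whole-parasite assay of Trypanosoma brucei over 72 hours; the read-out is not stated. Tested at 30 µM. The record gives no direction; compounds that gave an IC50 in retests scored well above the rest, so higher reads as stronger inhibition. Values scatter widely below zero; nearly all retest evidence comes from the higher of the two concentrations used. Size under these conditions: about 64,000 compounds, about 940 of them at 50% or above in at least one test.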
Leishmania in macrophages: 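Cell assay of Leishmania donovani living inside macrophages; the read-out is not stated. Tested at 30 µM. Higher reads as stronger inhibition (inferred: compounds with an IC50 in retests scored well above the rest). Of about 69,000 compounds tested this way, about 1,000 (1.5%) reached 50% or more in at least one test.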

The filed quantity is “Percent Effect” (%).
How 0% and 100% were set is not recorded. Most values in the screen are low, and negative values occur.
Compounds were drawn at random from those tested, without regard to their results.
Two or more numbers in one place are separate tests of the same structure; such repeats can differ widely.
A dash means the value is not listed here; it may have been measured.

| Compound | LiHisRS | Toxoplasma | ClpP1P2 | T. brucei | Leishmania in macrophages |
|---|---|---|---|---|---|
| `COCC(=O)Nc1ccc2c(c1)C1(CCOCC1)CN2CCF` | 20.72% | - | -10.52% | - | - |
| `CN(C)CCCNC(=O)c1cnc(Cc2ccc(F)cc2)s1` | 18.75% | 5.116% | 5.229% | 52.82% | -23.24% |
| `[H][C@@]12CN(C(=O)c3cccn3C)C[C@]1([H])C(=O)N(CC1CC1)C2` | - | 9.683% | - | -4.075% | 10.44% |
| `O=C(O)[C@]12CCCN(Cc3ccoc3)C[C@H]1CN(c1ncccn1)C2` | 8.333% | - | -10.26% | - | - |
| `O=C(CN1CCCC1c1noc(C2CC2)n1)N1CCc2ccccc21` (stereo unspecified) | 25.45% | 6.924% | 4.77% | -13.3% | 35.06% |
| `O=C(O)C(F)(F)F.[H][C@@]12CN(CC3CC3)CCO[C@]1([H])CN(C(=O)C1CC(F)(F)C1)C2` | - | -3.246% | - | -23.37% | 18.63% |
| `Cc1ccc(CNCC2CNc3cc(C)nn3C2)cn1` (stereo unspecified) | 12.5% | -17.35% | -26.78% | -20.04% | 11.93% |
| `CCc1cc(NC(=O)N2CCC(Oc3cccnc3)C2)n(C)n1` (stereo unspecified) | 4.386% | -0.8021% | 0.1348% | 5.025% | 6.387% |
| `OC1(CN2CCCC2)CCCN(Cc2ccc(F)cc2Cl)C1` (stereo unspecified) | 22.33% | -1.322% | -17.57% | -4.937% | 31.11% |
| `O=C1CCNc2ccc(F)cc2CN1Cc1ccccc1` | 14.29% | -25.84% | 4.727% | -35.83% | -11.69% |
| `Cc1nc(C(=O)NCCS(=O)(=O)N2CCCC2)cs1` | 0% | 12.89% | 0.2976% | -24.54% | 6.079% |
| `CCn1c(N)nc2cc(C(=O)N3CCCN(C)CC3)cnc21` | 16.44% | -9.815% | 7.685% | -39.56% | 9.563% |
| `Cn1cc(CN2CCC3(CC2)C(=O)Nc2ccccc23)cn1.O=C(O)C(F)(F)F` | - | -4.85% | - | -37.18% | 4.431% and 0.7052% |
| `CC(C)(C)NC(=O)CNC(=O)c1cccnc1Oc1cccnc1` | 14.52% | 0.4428% | -4.806% | -32% | 28.21% |
| `CN(C)CCNC(=O)c1cc(-c2cnc(N3CCCC3)nc2)cn1C.O=C(O)C(F)(F)F` | - | 16.58% | - | 97.37% | -33.65% |
| `CN1CCc2ncc(CNC(=O)c3cccn3C)n2CC1.O=C(O)C(F)(F)F` | - | -1.859% | - | -12.27% | 15.3% |
| `O=C(c1c(F)cccc1F)N1CCOCC1` | -3.448% | 3.838% | -1.674% | -25.41% | -81.54% |
| `CC(C)(O)CN1CCN(C(=O)c2cc(Cl)cc3cccnc23)CC1` | 10.64% | -6.692% | -2.557% | -12.02% | 40.15% |
| `[H][C@]12CN(Cc3ccccc3Cl)CCN1C(=O)N(Cc1ccccc1)C2` | - | 6.255% | - | -31.15% | -16.97% |
| `Cc1cc(CNc2nccc(N)n2)c2[nH]c(C)c(C)c2c1` | 18.03% | 0.7286% | -12.99% | 30.73% | -6.065% |
| `O=C(Cc1ccccc1Br)NCC(=O)Nc1cn[nH]c1` | 0.8929% | -0.911% | -3.172% | -23.02% | 2.128% |
| `CN(Cc1cnn(-c2ccccc2)n1)C1CCCN(c2cccnn2)C1` (stereo unspecified) | 14.91% | 6.583% | -11.59% | -12.04% | 5.899% |
| `Cc1ccc(-c2cc(CNC(=O)N3CCC(O)CC3)on2)cc1` | 20% | -0.09572% | -6.518% | 0.4383% | 29.41% |
| `O=C1CC2(CCCCN2C(=O)c2ccncc2)CN1CC1CC1` (stereo unspecified) | 21.1% | - | 3.534% | - | - |
| `Cc1nnc(Nc2cccc(C3CCN(CCO)CC3)n2)s1` | 10.95% | 0.6101% | 12.35% | 4.331% | 19.92% |
| `O=C(COCc1ccccc1Cl)N1CCCC(n2ccnc2)C1` (stereo unspecified) | 10.26% | 5.509% | -9.157% | - | -3.376% |
| `CCCc1ccc(CN2C[C@H]3C(=O)N(CC4CC4)C[C@@]3(C(=O)O)C2)o1` | 12.12% | - | -9.463% | - | - |
| `COCCNC(=O)C1(Cc2ccccc2-c2ccncc2)CCOCC1` | 2.069% | -4% | -2.084% | -7.78% | 3.316% |
| `N#Cc1cccc(NC2CC(=O)N(CCc3ccc(F)cc3)C2)n1` (stereo unspecified) | 8.511% | -11.21% | 3.194% | -24.77% | -25.32% |
| `O=C1NCC(c2ccc(Cl)cc2)Cc2[nH]c(CCN3CCOCC3)nc21` (stereo unspecified) | 6.993% | -6.471% | -5.911% | -6.17% | 5.75% |
| `Cc1nc(C(=O)N(C)[C@@H]2CCC[C@@H](Oc3ccccc3)[C@@H]2O)co1` | 11.58% | 13.55% | -3.104% | -32.6% | 11.24% and 1.908% |
| `CCN1C(=O)C2(CCOCC2)c2cc(NC(=O)c3cccn3C)ccc21` | 1.37% | 7.896% | -14.49% | -36.01% | -37.49% |
| `NCC1CCCCN1C(=O)Cc1cccc(Br)c1` (stereo unspecified) | 7.895% | - | -3.467% | - | - |
| `CC(=O)N1CCc2c(nc(N(C)C)nc2N(C)CCCC2CCCO2)C1` (stereo unspecified) | 1.429% | 3.87% | -2.167% | -51.96% | -1.539% |
| `O=C(O)C(F)(F)F.[H][C@@]12CCN(Cc3nccs3)C[C@@]1([H])O[C@@H](C(=O)NCCOC)C2` | - | -9.633% | - | -2.272% | 23.99% |
| `Cc1cc(C)n(CC2CN(CCOc3ccccc3C#N)CCO2)n1` (stereo unspecified) | 11.4% | 1.553% | -25.71% | 16.88% | 10.79% |
| `CCc1nc(C2CCCN2Cc2ncc(C)c(OC)c2C)no1` (stereo unspecified) | -2.073% | 1.262% | -4.671% | -11.16% | 1.26% |

Once more, the final 3:

Compound	LiHisRS	Toxoplasma	ClpP1P2	T. brucei	Leishmania in macrophages
O=C(O)C(F)(F)F.[H][C@@]12CCN(Cc3nccs3)C[C@@]1([H])O[C@@H](C(=O)NCCOC)C2	-	-9.633%	-	-2.272%	23.99%
Cc1cc(C)n(CC2CN(CCOc3ccccc3C#N)CCO2)n1 (stereo unspecified)	11.4%	1.553%	-25.71%	16.88%	10.79%
CCc1nc(C2CCCN2Cc2ncc(C)c(OC)c2C)no1 (stereo unspecified)	-2.073%	1.262%	-4.671%	-11.16%	1.26%